Literature values, collected in patent US20200078453A1, “METHODS OF TREATING A MAMMAL SUFFERING FROM OR SUSCEPTIBLE TO AN IMMUNE REACTION TO DRUG TREATMENT” (Idogen AB, priority 2015, published 2020).
At least one compound was matched to its structure with a doubt left.

Tests used:
[1] = system: pancreatic islet allotransplants; conditions: Streptoxotocin treated diabetic rats; cited from earlier work
[2] = system: silenced and hypermethylated p16 gene in human bladder tumour cells; conditions: orally administered; human bladder tumour cells grown in nude mice; cited from earlier work

O=c1ncccn1[C@@H]1O[C@H](CO)[C@@H](O)[C@H]1O [Zebularine]
survival of pancreatic islet allotransplants [1]: induces long term survival | effect on silenced and hypermethylated p16 gene [2]: demethylation and reactivation
